Experimental findings from paper PMC5829277 are described below.

Assay [1] deals with T1, RGB1-nLuc (rice) (UniProt Q40687).
T1 sequence: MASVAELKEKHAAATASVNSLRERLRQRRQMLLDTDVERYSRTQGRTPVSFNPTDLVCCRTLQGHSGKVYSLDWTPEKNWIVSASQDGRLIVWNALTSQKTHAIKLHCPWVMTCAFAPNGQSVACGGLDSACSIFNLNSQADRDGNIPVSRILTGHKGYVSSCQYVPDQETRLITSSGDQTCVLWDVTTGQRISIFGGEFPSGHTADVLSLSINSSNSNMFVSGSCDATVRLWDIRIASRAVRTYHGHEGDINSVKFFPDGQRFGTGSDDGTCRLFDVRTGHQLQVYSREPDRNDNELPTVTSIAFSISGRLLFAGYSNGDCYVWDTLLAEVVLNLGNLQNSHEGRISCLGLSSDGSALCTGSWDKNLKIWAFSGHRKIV
The assay is described as follows: split reporter; split firefly luciferase (RGB1-nLuc plus cLuc fusions), transient expression in rice protoplasts, Luc normalised to 35S::REN.

In assay [2] the target is T1, RGB1-nLuc (rice). The assay is described as follows: split reporter; split firefly luciferase, competition: RGB1-nLuc plus cLuc-DEP1 or cLuc-GGC2 transiently expressed in protoplasts of ZH11, GS3-1OE and GS3-4OE, Luc normalised to 35S::REN.
For assay [3], the target named is T2, RGB1 (G-beta subunit), yeast two-hybrid fusion (rice) (UniProt Q40687).
T2 sequence: T1 sequence
Put plainly: two-hybrid; Matchmaker Two-Hybrid System (Clontech), PGADT7 and PGBKT7 fusions cotransformed into yeast AH109; selected on SD/-LW, interactions on SD/-LWHA.

In a further assay the target is T3, RGB1, BiFC fusion (rice) (UniProt Q40687).
T3 sequence: T1 sequence
Put plainly: split reporter; BiFC, pSPYNE(R)173 and pSPYCE(MR) fusions in Arabidopsis protoplasts, incubated in the dark overnight, confocal fluorescence.

Assay [4] has as its target T4, BD-RGB1 (pBRIDGE bait), yeast three-hybrid (rice) (UniProt Q40687).
T4 sequence: T1 sequence
Put plainly: yeast three-hybrid; pGADT7 prey vectors cotransformed with pBRIDGE bait vectors in yeast AH109; selected on SD/-LWM, interactions on SD/-LWMH, 5 mM 3-aminotriazole; liquid β-galactosidase assay with CPRG.

These are yes or no findings as the source states them, for the method shown. For some assays here: Binding seen in cells or lysates may run through a third protein. Some results given as binding are weak or reduced against the parent protein; the word gives no strength. Sequences can lack the tags named with a protein.

B1: cLuc-DEP1 (protein, UniProt Q67UU9 1-426)
chain: MGEEAVVMEAPRPKSPPRYPDLCGRRRMQLEVQILSREITFLKDELHFLEGAQPVSRSGCIKEINEFVGTKHDPLIPTKRRRHRSCRLFRWIGSKLCICISCLCYCCKCSPKCKRPRCLNCSCSSCCDEPCCKPNCSACCAGSCCSPDCCSCCKPNCSCCKTPSCCKPNCSCSCPSCSSCCDTSCCKPSCTCFNIFSCFKSLYSCFKIPSCFKSQCNCSSPNCCTCTLPSCSCKGCACPSCGCNGCGCPSCGCNGCGCPSCGCNGCGLPSCGCNGCGSCSCAQCKPDCGSCSTNCCSCKPSCNGCCGEQCCRCADCFSCSCPRCSSCFNIFKCSCAGCCSSLCKCPCTTQCFSCQSSCCKRQPSCCKCQSSCCEGQPSCCEGHCCSLPKPSCPECSCGCVWSCKNCTEGCRCPRCRNPCCLSGCLC
In the case of B1, the binding entry with RGB1-nLuc (rice) [1] and in the assay with RGB1-nLuc (rice) [2] was “binds” throughout.

B2: DEP1, yeast two-hybrid fusion (protein, UniProt Q67UU9 1-426)
chain: B1 chain
As for B2, in assay [3], the binding result is listed as “binds”.

B3: DEP1, BiFC fusion (protein, UniProt Q67UU9 1-426)
chain: B1 chain
Consider B3, for which the binding entry in the assay with RGB1, BiFC fusion (rice) is given as “binds”.

B4: AD-DEP1 (pGADT7-DEP1), yeast three-hybrid (protein, UniProt Q67UU9 1-426)
chain: B1 chain
Consider B4, for which, in assay [4], the binding entry is listed as “binds”.
